The text below walks through data of PMC8133776.

Amino acid sequences for entries named in this document (tags omitted). A change or cut given only in a name is not applied to a line headed by its entry.
UniProt Q9W4W2: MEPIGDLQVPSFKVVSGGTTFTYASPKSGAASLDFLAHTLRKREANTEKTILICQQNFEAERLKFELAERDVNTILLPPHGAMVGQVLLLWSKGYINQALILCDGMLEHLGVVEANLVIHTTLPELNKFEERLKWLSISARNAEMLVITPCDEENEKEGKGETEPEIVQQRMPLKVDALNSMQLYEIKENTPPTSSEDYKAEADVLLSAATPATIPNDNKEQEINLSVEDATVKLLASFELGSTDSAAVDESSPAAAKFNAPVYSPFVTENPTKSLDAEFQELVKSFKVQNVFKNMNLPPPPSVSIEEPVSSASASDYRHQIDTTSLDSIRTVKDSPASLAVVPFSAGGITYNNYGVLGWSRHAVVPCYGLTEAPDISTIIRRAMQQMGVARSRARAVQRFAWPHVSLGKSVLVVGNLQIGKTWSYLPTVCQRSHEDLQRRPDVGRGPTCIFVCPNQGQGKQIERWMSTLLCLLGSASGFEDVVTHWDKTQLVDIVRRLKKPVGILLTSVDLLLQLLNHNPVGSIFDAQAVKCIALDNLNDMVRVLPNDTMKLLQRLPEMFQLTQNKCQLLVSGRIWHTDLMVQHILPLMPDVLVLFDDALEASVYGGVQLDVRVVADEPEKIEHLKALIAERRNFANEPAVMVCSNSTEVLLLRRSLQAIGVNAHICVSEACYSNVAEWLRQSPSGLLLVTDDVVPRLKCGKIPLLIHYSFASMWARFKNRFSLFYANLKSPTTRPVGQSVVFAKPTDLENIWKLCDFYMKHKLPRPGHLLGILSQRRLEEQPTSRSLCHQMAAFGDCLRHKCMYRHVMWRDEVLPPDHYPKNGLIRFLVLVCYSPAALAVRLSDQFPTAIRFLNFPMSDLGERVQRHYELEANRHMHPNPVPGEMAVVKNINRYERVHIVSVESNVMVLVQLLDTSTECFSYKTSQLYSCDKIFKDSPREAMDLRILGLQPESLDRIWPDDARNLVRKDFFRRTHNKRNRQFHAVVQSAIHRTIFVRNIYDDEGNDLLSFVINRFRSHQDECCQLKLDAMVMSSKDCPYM
UniProt Q9U1H9: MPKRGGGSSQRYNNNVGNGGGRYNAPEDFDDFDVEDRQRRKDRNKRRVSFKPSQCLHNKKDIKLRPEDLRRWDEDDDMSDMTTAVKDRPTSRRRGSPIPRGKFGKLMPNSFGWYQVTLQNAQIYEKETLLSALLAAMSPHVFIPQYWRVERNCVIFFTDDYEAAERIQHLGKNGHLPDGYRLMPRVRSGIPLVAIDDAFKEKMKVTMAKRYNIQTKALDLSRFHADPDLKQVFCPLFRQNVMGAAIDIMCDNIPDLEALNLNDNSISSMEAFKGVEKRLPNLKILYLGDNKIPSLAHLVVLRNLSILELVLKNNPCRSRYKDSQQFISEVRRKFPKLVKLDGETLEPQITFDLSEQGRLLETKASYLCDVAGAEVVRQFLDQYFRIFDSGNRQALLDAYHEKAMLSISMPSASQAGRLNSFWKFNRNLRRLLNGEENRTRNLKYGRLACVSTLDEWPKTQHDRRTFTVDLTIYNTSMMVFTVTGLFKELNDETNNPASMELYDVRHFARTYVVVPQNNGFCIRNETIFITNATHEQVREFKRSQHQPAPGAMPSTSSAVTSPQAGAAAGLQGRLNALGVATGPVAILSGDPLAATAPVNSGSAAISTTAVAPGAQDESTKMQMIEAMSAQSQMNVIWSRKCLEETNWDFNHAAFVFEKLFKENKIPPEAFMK
UniProt Q9W1X4: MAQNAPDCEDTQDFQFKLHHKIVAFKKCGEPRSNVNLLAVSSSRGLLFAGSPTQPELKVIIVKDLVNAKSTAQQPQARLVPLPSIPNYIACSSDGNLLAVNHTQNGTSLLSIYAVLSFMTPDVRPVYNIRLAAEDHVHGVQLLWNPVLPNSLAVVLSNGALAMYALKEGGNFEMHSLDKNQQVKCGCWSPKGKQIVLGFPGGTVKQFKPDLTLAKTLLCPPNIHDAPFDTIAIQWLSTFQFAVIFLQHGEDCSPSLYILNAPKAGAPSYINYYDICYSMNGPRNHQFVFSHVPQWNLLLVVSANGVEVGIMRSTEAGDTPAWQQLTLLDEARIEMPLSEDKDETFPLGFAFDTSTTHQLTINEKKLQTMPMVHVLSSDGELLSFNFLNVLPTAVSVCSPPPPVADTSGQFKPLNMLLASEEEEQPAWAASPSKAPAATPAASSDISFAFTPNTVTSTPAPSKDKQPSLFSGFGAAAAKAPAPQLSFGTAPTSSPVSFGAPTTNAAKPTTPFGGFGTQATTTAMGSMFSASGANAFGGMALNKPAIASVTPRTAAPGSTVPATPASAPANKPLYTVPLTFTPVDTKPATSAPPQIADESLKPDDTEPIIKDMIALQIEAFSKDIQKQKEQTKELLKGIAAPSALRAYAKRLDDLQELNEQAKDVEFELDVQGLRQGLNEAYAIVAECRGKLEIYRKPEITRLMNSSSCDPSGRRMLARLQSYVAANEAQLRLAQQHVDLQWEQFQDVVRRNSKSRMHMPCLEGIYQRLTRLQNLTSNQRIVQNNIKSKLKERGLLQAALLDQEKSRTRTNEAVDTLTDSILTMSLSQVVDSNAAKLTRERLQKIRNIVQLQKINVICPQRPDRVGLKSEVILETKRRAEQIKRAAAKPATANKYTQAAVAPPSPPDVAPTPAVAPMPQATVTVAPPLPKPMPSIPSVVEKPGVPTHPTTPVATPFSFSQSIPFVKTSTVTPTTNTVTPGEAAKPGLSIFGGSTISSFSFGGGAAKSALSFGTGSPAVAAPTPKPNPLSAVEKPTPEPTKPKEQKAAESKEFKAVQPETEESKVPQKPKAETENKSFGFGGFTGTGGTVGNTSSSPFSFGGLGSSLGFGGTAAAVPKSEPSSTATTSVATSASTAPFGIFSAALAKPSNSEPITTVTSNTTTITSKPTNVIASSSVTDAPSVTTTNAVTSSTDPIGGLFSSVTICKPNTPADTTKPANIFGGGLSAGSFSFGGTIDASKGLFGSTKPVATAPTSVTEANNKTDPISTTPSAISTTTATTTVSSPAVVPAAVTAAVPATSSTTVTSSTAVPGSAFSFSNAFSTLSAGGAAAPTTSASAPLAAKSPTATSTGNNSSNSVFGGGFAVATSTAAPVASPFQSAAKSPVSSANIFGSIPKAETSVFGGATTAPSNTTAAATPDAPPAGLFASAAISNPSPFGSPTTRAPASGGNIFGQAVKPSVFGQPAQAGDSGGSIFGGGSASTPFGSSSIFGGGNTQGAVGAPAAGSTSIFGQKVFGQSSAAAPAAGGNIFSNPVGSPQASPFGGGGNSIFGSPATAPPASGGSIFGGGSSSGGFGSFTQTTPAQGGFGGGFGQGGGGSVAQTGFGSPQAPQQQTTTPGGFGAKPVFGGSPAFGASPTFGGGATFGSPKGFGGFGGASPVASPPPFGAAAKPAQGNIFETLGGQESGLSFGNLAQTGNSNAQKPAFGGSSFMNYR

Common to all, as to assay: proximity labelling; HA-BASU fusion expressed in OSCs, 200 uM biotin for 1 hr, streptavidin pulldown of biotinylated proteins, TMT quantitative mass spectrometry against HA-ZsGreen control
The target in experiment [1] is T1, BASU-Nup54 (Drosophila melanogaster) (UniProt Q9V6B9).
T1 sequence: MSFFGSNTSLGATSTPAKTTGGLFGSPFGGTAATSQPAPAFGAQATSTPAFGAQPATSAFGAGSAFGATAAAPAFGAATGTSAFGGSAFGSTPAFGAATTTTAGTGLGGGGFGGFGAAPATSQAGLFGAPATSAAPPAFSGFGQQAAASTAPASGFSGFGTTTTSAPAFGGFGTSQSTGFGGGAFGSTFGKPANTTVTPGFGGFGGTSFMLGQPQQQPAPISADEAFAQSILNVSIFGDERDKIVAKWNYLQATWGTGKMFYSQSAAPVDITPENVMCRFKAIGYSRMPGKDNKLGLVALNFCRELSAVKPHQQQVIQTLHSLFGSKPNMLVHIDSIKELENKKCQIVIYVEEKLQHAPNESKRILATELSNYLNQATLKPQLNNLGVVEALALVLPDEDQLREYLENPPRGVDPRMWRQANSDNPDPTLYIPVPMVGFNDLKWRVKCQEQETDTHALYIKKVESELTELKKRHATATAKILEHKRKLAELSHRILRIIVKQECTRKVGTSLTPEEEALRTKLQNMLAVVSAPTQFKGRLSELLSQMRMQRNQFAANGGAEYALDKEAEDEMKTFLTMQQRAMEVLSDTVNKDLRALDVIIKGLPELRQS

Experiment [2] addresses T2, BASU-Nup58 (Drosophila melanogaster) (UniProt Q9VDV3).
T2 sequence: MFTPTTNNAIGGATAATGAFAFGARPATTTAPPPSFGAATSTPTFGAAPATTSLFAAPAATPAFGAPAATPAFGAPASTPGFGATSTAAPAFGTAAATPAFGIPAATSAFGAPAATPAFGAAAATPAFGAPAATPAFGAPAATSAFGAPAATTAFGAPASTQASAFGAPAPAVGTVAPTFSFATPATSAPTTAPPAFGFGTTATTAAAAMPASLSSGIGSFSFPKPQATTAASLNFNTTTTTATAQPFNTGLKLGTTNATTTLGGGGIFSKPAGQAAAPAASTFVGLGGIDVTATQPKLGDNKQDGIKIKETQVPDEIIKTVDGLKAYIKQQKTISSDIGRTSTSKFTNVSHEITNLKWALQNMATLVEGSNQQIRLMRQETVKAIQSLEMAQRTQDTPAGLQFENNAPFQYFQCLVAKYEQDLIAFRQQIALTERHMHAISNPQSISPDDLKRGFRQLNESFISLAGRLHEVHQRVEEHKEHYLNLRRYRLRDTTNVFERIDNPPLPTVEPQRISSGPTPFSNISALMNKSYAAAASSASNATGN

The target in experiment [3] is BASU-Yb (Drosophila melanogaster) (UniProt Q9W4W2).
The target in experiment [4] is T1, BASU-Nup54 (Drosophila melanogaster). This is another data set of the same source.
In experiment [5] the target is T2, BASU-Nup58 (Drosophila melanogaster). This is another data set of the same source.
In experiment [6] the target is BASU-Yb (Drosophila melanogaster) (UniProt Q9W4W2). The source holds these as a separate data set.

Read-outs that look alike come from different tables or passages of the source. These are yes or no findings as the source states them, for the method shown. Binding seen in cells or lysates may run through a third protein. A yes stands for co-enrichment or nearness to the bait. Other partners may have been found.

With “Nxf1 (endogenous) (from UniProt Q9U1H9 1-672)”, the binding result in experiment [1] and in experiment [2] was “binds weakly” each time.

With Nup214 (from UniProt Q9W1X4 1-1711), the binding entry in experiment [3] is “binds”.

B1: Nup93-1 (protein, UniProt Q9XZ06 1-823)
chain: MDLMELLKQAQRLTNETNTDTEVPGVERTMSQVLQATKEFHSRVTQMGTNDLQAHILLGSKGVDLPKLTQKLESLSARQTFEPIDPVTETNVQAYLKNERENAILSVIDETNRSIFKSVERQKWRCIYSEWGEEKEALLNALVGPNQQDFPDVQFQIVPTAMADEPTPYSQLNGHEQMYAEQIAIHNQSIILGRRPNLLSTLAHVVQDSFNDESVAEMWNVLQFMTALPPVSSTIDPIKNRQTSPQFVEQARTYLERRYRTYMRKFIVANLAKARRGGIPSVYHMVRSYVGVTLQGQRALYGLHDVNNGQPLWPHVYYSLRSGDMDAAALYLKESGTCPDLLTLLTLRKNGDRDNLMVKLEGQLKLEYNSRLRACTDPYKKAVYVVLLACDPHFTHVELMRSIDDFLWMQLSILRRSDQSDSNTEQLTFSGLQSLILEKYGENYFNAREKAALYFQVLTLTGQFEAAIEFLARTEKNRTHAIHMAIALNEISMLGTPRSVEQSLLSSDPDDPKPMKRLNLVRLIVMYTKCFERTDTTQALHYYYLLRNFKSENGRGNVMLTCVCDLLVEKCDDEMLELIFGTEDKKNGLRYGGIYAEFQIHECDKYSLAEMVGDELSKRGDYELAIELYFIGGQLDKALRLVNSLLAQVVHQPTQNGSVRNRLGDIINRLDAALVVRKSDVEVQVVVTYTVLTKVMKFFDHYHEGALRSALEILTNNHLIPASSLEVDECVTNIKRMGPEVIKVLPDILLASMDIVYQEYVKLMDSNETASGFFDESKCVNKEPAVKHLRDRAKAFTNMAASVPYRMPSTTNQRLVQLEILMH
Consider B1, for which the binding entry in experiment [4] and in experiment [5] was “binds” throughout.

B2: Piwi (protein, UniProt Q9VKM1 1-843)
chain: MADDQGRGRRRPLNEDDSSTSRGSGDGPRVKVFRGSSSGDPRADPRIEASRERRALEEAPRREGGPTERKPWGDQYDYLNTRPAELVSKKGTDGVPVMLQTNFFRLKTKPEWRIVHYHVEFEPSIENPRVRMGVLSNHANLLGSGYLFDGLQLFTTRKFEQEITVLSGKSKLDIEYKISIKFVGFISCAEPRFLQVLNLILRRSMKGLNLELVGRNLFDPRAKIEIREFKMELWPGYETSIRQHEKDILLGTEITHKVMRTETIYDIMRRCSHNPARHQDEVRVNVLDLIVLTDYNNRTYRINDVDFGQTPKSTFSCKGRDISFVEYYLTKYNIRIRDHNQPLLISKNRDKALKTNASELVVLIPELCRVTGLNAEMRSNFQLMRAMSSYTRMNPKQRTDRLRAFNHRLQNTPESVKVLRDWNMELDKNVTEVQGRIIGQQNIVFHNGKVPAGENADWQRHFRDQRMLTTPSDGLDRWAVIAPQRNSHELRTLLDSLYRAASGMGLRIRSPQEFIIYDDRTGTYVRAMDDCVRSDPKLILCLVPNDNAERYSSIKKRGYVDRAVPTQVVTLKTTKNRSLMSIATKIAIQLNCKLGYTPWMIELPLSGLMTIGFDIAKSTRDRKRAYGALIASMDLQQNSTYFSTVTECSAFDVLANTLWPMIAKALRQYQHEHRKLPSRIVFYRDGVSSGSLKQLFEFEVKDIIEKLKTEYARVQLSPPQLAYIVVTRSMNTRFFLNGQNPPPGTIVDDVITLPERYDFYLVSQQVRQGTVSPTSYNVLYSSMGLSPEKMQKLTYKMCHLYYNWSGTTRVPAVCQYAKKLATLVGTNLHSIPQNALEKKFYYL
Consider B2, for which, in experiment [6], the binding result is given as “binds”.

B3: Armi (protein, UniProt Q6J5K9 1-1188)
chain: MFTYVSKFFTNPDRNREDILESLDRENSFLDQKLMEEKMDQQLKANPNEINGVLSNKIAELTHGLSEMDVSKESSCTARKGVITSLDGDRGVIDKDVLFETKVAEDIILDLHVGCVVEYLTFTTGEAMRVVKVKSILEHSWEDTSQKEIEKAVDNLKNEKPTFFNTETRSVLGLISQRLASSIDVETEYGQLTVELDNIEMNFIPTNGDRVRLECNIQLDDGFVDKQGEILEVTKLFPTRIQEGEKCIVERVYVHMVVLGPETYILKTDLPTGTDLHLGDIVLADLIECQYSKFTRRAIKITPLEKNFGATKLTQQSSMGSSGSGKAVTVTGVNRFITAELWQKESVSLKLTNNLNRTLRLESITVCNDSESQLSVVSPLESKEISSGSEITVTFEIHTQFLGEAIEKYVLNFDLLKVRRVFTVIVCKTKEEVAEAEKRMIAAEALMAPGRNSQERSRFYANQVWCNKVDVIPGQQIVTKRRFVALRLGCFEVPKELRQICLTSERRQEMIKAIEQHYSFLTEPLSIKTYMHRFRLLLHLEEIECFVNFRNYDRDRAHFLRDGEFLTLQIENLAERRPSLVIGDTLRVINPWSDPDSQTTKSYEGIIHKVLFDRILLKFHSSFQEKYNGEDYRLEFYFSRYSFRKQHHAISKIVGVMGEDFLFPSKVTKRENPQLDVYMKDDDMYLYDSKLEWYNQSLNSIQKRAVFNILRGEAENIPYVLFGPPGSGKTMTLIETLLQLVRNLPGARILVGTPSNSSADLVTKRLIDSKALLQGDFIRLVSYNQVEKDLIPPEIMSYCATSDVGAVGSCEDKMMVTESGLKLRCQAKFIGTHRITISTCTTLGNFLQLGFPAGHFTHVLFDEAGQCTEPETMVPIVMLTKKRSQVVLSGDPRQLQSIVTSRIASKMGFSISFLERLLERSPYRKDLQRFPESSGYNPLVLTKLLYNYRALPSIMSIYSRLFYDDELIPVLSEKDSRESRLLSKLRCVFESEKDIPQAHGTFFYGIIGENRQNNDSPSWFNPQEVREVFLMTIALYRANVTADQIGIITPYQKQVKMLRSMFIGTDVVMPKIGSVEEFQGQERDIILISTVRSSEEILRMDARFSLGFVRCSKRLNVAVSRARAMMIIFGNPHLLAVDECWRQLILFCVKNNAYFGCDLPQMVINQKDEVPVCLETFVPSLNTTDDLN
On to B3, for which the binding entry in experiment [6] was “binds”.
